{
  "sequences": {"note": "Protein sequences, listed by entry. Tags and fused reporters are not part of them.", "UniProt B0LPN4": "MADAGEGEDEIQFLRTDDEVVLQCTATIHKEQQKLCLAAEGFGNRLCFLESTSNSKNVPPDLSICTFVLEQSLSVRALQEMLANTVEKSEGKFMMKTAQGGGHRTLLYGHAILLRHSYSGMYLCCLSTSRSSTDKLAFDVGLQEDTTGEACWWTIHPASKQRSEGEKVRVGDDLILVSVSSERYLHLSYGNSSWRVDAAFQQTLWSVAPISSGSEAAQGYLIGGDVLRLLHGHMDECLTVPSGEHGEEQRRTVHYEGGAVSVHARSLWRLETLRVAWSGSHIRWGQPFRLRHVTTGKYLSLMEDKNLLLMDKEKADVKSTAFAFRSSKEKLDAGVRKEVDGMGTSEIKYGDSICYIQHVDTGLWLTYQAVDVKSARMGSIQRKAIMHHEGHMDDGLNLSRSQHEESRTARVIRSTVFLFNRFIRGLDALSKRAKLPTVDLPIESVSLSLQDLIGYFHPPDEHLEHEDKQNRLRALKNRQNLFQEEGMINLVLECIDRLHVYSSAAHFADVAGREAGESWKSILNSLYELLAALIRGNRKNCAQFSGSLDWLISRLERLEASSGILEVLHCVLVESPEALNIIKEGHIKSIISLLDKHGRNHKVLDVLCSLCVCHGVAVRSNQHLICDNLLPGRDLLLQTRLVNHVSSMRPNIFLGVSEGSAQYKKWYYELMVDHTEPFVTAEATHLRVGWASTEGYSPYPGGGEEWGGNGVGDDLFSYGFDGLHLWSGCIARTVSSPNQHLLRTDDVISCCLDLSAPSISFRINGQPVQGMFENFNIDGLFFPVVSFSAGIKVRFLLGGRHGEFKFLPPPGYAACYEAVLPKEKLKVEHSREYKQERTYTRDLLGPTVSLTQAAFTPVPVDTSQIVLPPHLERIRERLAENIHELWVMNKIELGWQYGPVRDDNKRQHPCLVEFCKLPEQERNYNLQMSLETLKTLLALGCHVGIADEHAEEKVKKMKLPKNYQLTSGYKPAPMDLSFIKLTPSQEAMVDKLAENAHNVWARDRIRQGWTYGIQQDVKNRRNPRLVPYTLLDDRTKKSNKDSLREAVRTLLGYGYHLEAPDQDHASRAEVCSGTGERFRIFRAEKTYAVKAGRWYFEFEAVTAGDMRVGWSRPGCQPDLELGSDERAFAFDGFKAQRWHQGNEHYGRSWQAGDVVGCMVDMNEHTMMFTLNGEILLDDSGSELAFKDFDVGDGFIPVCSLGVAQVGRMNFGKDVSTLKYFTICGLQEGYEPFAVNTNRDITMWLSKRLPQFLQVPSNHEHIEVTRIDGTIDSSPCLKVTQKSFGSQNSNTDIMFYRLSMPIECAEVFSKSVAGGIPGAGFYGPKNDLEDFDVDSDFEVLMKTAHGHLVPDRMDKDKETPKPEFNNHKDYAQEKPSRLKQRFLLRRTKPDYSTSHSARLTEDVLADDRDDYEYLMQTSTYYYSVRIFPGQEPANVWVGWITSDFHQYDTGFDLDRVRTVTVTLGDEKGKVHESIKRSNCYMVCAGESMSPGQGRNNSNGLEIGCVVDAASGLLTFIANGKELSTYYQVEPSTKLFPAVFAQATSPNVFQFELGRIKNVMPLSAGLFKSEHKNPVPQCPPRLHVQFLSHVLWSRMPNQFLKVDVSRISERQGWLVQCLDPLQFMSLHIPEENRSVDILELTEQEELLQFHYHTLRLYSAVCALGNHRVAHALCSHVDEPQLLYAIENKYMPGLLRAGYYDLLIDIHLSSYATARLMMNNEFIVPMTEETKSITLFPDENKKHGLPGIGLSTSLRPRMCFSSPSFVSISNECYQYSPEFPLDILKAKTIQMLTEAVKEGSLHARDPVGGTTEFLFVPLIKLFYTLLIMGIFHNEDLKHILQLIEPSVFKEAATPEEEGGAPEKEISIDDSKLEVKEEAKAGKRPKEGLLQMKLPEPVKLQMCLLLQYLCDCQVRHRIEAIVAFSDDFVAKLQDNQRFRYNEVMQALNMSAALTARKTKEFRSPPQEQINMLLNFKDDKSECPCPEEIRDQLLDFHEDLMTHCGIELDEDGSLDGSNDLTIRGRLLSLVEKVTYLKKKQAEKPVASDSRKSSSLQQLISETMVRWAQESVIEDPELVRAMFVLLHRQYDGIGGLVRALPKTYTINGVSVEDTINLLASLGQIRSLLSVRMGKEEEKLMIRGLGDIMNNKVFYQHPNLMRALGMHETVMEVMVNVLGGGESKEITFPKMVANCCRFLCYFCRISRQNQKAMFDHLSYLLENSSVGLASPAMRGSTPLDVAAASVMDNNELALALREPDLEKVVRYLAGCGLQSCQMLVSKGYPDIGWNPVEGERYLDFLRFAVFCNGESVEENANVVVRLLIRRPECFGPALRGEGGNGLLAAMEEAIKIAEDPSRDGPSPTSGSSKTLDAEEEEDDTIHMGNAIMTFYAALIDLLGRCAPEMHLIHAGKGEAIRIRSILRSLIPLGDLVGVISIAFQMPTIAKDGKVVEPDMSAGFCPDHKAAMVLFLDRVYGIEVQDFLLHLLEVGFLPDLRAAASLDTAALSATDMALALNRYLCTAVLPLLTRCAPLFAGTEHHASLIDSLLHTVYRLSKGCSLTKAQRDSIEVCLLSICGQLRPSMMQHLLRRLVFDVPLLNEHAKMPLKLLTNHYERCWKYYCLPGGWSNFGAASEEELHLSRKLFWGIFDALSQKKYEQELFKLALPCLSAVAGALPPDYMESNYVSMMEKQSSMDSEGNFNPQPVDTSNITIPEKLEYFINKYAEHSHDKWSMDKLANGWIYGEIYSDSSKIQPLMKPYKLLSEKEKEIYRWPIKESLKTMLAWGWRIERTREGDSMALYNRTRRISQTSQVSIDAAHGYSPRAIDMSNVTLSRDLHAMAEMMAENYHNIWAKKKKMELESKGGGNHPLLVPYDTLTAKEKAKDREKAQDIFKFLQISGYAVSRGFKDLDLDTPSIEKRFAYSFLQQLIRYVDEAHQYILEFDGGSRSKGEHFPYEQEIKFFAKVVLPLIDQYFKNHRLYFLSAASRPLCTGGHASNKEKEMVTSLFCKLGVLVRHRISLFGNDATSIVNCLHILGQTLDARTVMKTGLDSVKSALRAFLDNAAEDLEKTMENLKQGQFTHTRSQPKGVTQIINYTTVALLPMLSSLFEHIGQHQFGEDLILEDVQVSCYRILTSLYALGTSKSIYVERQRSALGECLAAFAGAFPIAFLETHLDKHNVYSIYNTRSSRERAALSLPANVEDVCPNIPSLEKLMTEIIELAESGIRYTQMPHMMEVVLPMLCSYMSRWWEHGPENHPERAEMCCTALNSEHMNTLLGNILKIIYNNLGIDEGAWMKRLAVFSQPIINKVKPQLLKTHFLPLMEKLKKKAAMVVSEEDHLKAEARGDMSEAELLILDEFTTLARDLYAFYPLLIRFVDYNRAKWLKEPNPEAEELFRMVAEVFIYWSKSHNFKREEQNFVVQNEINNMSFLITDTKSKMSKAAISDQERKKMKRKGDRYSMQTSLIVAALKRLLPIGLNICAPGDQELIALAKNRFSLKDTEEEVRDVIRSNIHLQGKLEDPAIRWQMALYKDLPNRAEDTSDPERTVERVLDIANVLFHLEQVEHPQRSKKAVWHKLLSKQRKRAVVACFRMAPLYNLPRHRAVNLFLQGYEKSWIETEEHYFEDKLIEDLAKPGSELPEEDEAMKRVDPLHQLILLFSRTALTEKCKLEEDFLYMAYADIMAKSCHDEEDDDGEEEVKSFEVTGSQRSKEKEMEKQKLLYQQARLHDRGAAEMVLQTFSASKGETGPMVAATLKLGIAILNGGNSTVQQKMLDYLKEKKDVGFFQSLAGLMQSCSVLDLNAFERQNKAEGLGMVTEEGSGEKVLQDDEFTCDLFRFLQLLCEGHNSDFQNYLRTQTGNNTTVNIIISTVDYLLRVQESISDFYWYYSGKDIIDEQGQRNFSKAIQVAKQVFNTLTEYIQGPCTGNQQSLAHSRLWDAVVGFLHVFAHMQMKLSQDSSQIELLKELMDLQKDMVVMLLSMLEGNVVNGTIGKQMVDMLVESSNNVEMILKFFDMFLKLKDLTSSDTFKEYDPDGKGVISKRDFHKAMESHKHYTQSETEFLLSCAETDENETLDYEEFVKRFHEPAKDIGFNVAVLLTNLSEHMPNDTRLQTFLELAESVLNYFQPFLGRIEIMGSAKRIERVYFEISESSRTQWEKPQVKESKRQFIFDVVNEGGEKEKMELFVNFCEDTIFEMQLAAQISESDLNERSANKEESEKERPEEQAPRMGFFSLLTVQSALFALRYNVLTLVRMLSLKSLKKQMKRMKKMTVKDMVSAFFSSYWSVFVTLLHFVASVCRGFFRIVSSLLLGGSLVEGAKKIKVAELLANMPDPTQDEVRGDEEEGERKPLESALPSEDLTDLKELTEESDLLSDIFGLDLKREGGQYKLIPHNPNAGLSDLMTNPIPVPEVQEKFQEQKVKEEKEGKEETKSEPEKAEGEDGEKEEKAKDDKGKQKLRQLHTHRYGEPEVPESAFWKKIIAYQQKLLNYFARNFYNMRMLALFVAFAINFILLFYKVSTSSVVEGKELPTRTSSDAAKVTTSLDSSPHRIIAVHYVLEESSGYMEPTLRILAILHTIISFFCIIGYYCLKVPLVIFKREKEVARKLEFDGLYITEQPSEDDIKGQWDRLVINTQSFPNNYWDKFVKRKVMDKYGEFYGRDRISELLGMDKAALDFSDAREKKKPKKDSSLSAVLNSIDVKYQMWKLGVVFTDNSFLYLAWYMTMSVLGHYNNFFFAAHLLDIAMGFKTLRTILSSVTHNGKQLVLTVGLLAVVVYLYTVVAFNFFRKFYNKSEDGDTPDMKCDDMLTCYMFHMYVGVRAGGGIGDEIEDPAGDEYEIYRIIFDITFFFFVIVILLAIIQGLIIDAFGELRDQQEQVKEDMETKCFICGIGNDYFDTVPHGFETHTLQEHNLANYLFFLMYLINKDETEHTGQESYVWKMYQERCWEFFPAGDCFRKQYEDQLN", "UniProt P23297": "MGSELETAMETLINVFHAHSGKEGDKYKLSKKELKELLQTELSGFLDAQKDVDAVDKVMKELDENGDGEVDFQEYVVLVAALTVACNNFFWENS"},
  "source": "paper doi:10.1101/2023.09.01.555853",
  "biological_target": "ryanodine receptor 2 (rat (endogenous in neonatal rat cardiomyocytes)) (UniProt B0LPN4)",
  "assay": "co-IP",
  "note": "Results are given in words; binding and its absence hold for the method and conditions named. Binding seen in cells or lysates may run through a third protein. Some results given as binding are weak or reduced against the parent protein; the word gives no strength.",
  "data": [
    {"substance": "wild-type human S100A1 (from UniProt P23297 1-94)", "values": [
      {"measurement": "binding", "value": "binds"}
    ]}
  ]
}
